# Primary screen of a compound library

Sequences of proteins named here, by UniProt entry; tags and fusion partners are left off. Residues count along the entry.
UniProt Q8IDJ8, 1-583: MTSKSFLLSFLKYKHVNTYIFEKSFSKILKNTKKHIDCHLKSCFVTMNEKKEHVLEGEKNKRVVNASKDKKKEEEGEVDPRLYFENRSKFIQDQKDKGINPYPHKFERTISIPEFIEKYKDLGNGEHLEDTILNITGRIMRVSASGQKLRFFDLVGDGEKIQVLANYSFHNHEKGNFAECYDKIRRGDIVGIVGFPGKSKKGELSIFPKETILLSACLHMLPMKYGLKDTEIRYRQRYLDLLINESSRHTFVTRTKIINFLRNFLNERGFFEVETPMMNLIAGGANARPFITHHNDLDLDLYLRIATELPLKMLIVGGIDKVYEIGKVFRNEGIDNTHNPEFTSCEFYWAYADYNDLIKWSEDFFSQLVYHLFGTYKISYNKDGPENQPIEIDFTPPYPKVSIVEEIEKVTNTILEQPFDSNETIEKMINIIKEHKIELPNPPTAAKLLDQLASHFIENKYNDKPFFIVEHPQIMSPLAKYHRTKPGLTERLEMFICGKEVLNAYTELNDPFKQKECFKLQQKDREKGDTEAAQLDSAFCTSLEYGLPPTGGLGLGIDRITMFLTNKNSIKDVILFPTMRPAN
UniProt I6X8D2, whole entry: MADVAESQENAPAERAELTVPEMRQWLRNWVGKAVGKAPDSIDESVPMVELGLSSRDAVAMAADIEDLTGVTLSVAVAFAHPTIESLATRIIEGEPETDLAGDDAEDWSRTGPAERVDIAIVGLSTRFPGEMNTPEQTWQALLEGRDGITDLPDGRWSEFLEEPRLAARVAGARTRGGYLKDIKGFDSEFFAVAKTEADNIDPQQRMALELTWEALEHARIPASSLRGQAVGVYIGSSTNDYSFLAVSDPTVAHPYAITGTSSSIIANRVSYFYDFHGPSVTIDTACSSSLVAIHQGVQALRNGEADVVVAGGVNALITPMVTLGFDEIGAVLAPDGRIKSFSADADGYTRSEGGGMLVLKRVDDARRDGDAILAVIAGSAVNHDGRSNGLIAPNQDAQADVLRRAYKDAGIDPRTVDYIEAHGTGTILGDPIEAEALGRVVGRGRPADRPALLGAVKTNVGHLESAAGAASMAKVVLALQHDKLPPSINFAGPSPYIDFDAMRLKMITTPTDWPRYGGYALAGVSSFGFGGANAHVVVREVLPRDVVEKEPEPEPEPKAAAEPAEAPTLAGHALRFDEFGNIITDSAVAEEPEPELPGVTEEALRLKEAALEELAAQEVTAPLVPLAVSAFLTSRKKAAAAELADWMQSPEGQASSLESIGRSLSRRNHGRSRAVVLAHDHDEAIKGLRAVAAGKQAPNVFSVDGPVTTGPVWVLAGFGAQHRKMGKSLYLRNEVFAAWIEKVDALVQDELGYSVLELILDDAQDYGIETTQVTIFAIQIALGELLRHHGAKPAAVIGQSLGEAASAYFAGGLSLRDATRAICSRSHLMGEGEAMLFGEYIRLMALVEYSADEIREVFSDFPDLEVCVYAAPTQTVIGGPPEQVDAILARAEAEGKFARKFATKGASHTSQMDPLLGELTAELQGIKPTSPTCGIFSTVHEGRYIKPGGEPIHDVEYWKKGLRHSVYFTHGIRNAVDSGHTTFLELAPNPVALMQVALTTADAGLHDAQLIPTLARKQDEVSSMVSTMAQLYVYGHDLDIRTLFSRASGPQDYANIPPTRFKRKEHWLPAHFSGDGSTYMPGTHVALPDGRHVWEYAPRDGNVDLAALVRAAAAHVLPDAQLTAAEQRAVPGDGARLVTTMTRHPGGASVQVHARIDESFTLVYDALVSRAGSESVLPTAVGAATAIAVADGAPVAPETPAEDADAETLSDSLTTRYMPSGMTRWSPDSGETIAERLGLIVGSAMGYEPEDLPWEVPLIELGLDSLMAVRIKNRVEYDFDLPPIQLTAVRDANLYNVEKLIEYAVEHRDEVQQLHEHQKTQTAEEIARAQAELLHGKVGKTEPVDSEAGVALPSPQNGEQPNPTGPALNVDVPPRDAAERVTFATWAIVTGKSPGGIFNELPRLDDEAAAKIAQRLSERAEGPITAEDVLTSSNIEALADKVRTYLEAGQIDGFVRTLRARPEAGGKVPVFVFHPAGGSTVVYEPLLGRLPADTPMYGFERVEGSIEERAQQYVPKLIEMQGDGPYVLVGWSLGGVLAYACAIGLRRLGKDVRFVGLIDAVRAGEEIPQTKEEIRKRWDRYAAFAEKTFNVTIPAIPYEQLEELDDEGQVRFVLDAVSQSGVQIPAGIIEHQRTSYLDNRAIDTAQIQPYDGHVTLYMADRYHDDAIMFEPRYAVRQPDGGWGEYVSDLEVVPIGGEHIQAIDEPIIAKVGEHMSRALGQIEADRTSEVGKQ
UniProt P9WNZ1, whole entry: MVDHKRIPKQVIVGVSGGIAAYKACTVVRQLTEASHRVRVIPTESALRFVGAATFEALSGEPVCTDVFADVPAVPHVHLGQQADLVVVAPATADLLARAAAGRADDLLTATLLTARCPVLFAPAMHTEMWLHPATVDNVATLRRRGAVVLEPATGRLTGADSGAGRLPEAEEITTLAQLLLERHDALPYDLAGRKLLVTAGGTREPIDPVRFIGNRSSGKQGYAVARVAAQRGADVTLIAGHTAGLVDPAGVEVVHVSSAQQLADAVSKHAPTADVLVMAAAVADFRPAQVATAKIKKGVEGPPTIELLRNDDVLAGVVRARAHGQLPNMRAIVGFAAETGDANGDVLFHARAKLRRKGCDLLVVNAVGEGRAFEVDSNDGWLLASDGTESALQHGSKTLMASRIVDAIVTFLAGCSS
UniProt Q4DA54, 1-478: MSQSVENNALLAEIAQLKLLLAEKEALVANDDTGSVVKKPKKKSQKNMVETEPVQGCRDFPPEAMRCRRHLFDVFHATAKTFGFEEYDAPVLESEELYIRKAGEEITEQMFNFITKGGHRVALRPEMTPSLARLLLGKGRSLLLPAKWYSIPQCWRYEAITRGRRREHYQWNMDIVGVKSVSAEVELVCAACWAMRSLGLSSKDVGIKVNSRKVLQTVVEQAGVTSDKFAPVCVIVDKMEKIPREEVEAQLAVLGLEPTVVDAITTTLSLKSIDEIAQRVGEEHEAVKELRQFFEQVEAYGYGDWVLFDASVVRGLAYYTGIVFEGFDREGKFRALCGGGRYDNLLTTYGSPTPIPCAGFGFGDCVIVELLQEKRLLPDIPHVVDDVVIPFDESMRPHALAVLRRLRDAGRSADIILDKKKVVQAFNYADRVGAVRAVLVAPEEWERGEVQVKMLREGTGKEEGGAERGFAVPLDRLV
UniProt P9WFT3, whole entry: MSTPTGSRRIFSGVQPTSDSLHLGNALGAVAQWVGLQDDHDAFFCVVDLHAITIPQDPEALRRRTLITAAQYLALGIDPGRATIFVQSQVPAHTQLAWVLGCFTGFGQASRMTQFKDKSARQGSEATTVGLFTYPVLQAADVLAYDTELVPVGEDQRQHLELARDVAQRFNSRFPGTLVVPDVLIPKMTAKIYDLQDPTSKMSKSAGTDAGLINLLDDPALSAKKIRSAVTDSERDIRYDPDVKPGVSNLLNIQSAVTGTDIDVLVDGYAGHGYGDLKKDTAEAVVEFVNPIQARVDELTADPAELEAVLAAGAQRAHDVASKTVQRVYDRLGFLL
UniProt P9WPC5, whole entry: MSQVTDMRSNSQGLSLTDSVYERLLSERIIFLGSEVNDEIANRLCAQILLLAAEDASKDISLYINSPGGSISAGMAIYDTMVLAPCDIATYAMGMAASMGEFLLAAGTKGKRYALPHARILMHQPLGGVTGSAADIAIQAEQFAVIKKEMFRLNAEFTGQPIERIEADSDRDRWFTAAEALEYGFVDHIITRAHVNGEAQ
UniProt P9WPC3, whole entry partner: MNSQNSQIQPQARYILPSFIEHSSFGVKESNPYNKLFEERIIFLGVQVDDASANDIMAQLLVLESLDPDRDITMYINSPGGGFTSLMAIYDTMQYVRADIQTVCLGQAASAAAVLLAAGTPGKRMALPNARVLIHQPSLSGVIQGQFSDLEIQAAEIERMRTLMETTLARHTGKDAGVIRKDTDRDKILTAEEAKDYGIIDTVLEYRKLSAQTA

PfKRS1: 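Enzyme assay of the cytosolic lysyl-tRNA synthetase in 384-well plates, read by luminescence. Target: Lysine-tRNA ligase, Plasmodium falciparum 3D7 (UniProt Q8IDJ8). Concentration: 30 µM. Direction is inferred from only a few compounds that gave an IC50; most scored high, so higher reads as stronger inhibition. About 69,000 compounds were tested under these conditions; 0.071% (about 49) showed 50% or more at least once.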
Pks13 thioesterase: 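Polyketide synthase Pks13, Mycobacterium tuberculosis (UniProt I6X8D2). Enzyme assay of the thioesterase domain of polyketide synthase 13; the read-out is not stated. Compounds at 30 µM. The record gives no direction; the compounds picked for IC50 retests had high values, so higher reads as stronger inhibition. Size under these conditions: about 67,000 compounds, about 300 of them at 50% or above in at least one test.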
CoaBC: 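Enzyme assay of CoaBC with a phosphate dye (Biomol Green) read at 650 nm. Target: Coenzyme A biosynthesis protein CoaBC, Mycobacterium tuberculosis (UniProt P9WNZ1). Compounds at 30 µM. Higher reads as stronger inhibition, judged from the few compounds that gave an IC50. Most strong results did not repeat in a second test. Of about 67,000 compounds tested this way, about 40 (0.06%) reached 50% or more in at least one test.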
TcHisRS: 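Enzyme assay of histidyl-tRNA synthetase; the read-out is not stated. Target: Histidine-tRNA ligase, Trypanosoma cruzi CL Brener (UniProt Q4DA54). Tested at 30 µM. Direction is inferred from retests: higher values go with stronger inhibition. Size under these conditions: about 69,000 compounds, about 31 of them at 50% or above in at least one test.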
MtTrpRS: 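Enzyme assay of tryptophanyl-tRNA synthetase; the read-out is not stated. Target: Tryptophan-tRNA ligase, Mycobacterium tuberculosis (UniProt P9WFT3). Compounds at 10 µM. Direction is not recorded; retested compounds ran higher, which suggests that high means inhibition. Size under these conditions: about 65,000 compounds, about 64 of them at 50% or above in at least one test.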
ClpP1P2: 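Protease assay of ClpP1P2, read by the AMC dye that it sets free. Target: ClpP1P2, Mycobacterium tuberculosis (UniProt P9WPC5 and UniProt P9WPC3). Concentration: 50 µM. Higher reads as stronger inhibition, judged from the few compounds that gave an IC50. Most other retested compounds had strongly negative values. About 69,000 compounds were tested under these conditions; 0.015% (about 10) showed 50% or more at least once.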

Each number is a percent effect as filed.
The record does not define 0% and 100%; most values in the screen are far below 50% and negative numbers occur (in some assays of this library far below -100).
Compounds were drawn at random from those tested, without regard to their results.
A dash means the value is not listed here; it may have been measured.

| # | Compound | PfKRS1 | Pks13 thioesterase | CoaBC | TcHisRS | MtTrpRS | ClpP1P2 |
|---|---|---|---|---|---|---|---|
| 1 | `COCCn1/c(=N\C(=O)CN(C)S(C)(=O)=O)sc2cc(OC)ccc21` | 1.974% | -17.48% | 1.38% | -1.463% | -2.129% | 0.6128% |
| 2 | `Cc1noc(C)c1CC(=O)N1CC[C@@](C)(O)[C@H](Oc2ccccc2)C1` | 1.783% | 28.38% | 0.7398% | 6.061% | -8.707% | -11.12% |
| 3 | `Nc1nnc(Cn2nnc(-c3ccccc3F)n2)s1` | 4.347% | -14.49% | -4.971% | 0% | 0.6461% | -10.66% |
| 4 | `CC[C@@H](CO)Nc1nccc(-c2cnc3sc(C)cn3c2=O)n1` | 1.64% | 26.18% | 0.1205% | 3.39% | - | 2.481% |
| 5 | `Cn1nnc2c1C(COCc1ccccn1)CN(Cc1ccoc1)C2` (stereo not given) | 3.557% | -14.13% | 1.261% | 5.785% | -5.58% | 5.897% |
| 6 | `COC1(CNC(=O)NCCc2ccccc2)CCSC1` (stereo not given) | 4.751% | -7.47% | -0.7634% | 4.819% | 2.81% | -9.864% |
| 7 | `CCOCCN1CCN(CCC(=O)N2CCCCC2)CC1` | 2.248% | 1.828% | -0.6242% | 6.122% | -0.3127% | -9.494% |
| 8 | `Cc1ccnc(CC(C)N(C)c2cc(CCN)nc(C)n2)c1` (stereo not given) | -1.473% | -34.62% | 2.419% | 5.028% | -3.43% | -1.768% |
| 9 | `Cc1ncncc1C(=O)N1CCCC(c2[nH]ncc2S(C)(=O)=O)C1` (stereo not given) | 2.092% | -2.586% | 1.699% | 5.495% | - | -9.502% |
| 10 | `OC(CN(Cc1ccccc1)Cc1cccnc1)c1cccs1` (stereo not given) | -0.6283% | -48.73% | -0.1972% | 3.175% | -3.047% | -9.967% |
| 11 | `O=C1CCc2cc(-c3csc(CCN4CCOC4=O)n3)ccc2N1` | 1.167% | -19.95% | -3.864% | 8.646% | 0.000006% | -20.34% |
| 12 | `CC(=O)N[C@@H]1CN(C(=O)c2ccoc2)C[C@H]1c1ccc(C)cc1` | 9.876% | 11.68% | 6.198% | 3.804% | -0.677% | -7.119% |
| 13 | `O=C(Nc1nccs1)C1CCCN1Cc1ccccn1` (stereo not given) | 4.151% | -15.5% | 0.7782% | 3.333% | -5.698% | 13.18% |
| 14 | `CCO[C@H]1CN(C)C[C@@H]1NC(=O)c1cc(C)nc2c(C)c(C)ccc12` | -0.3596% | -10.86% | 7.143% | 2.4% | -0.161% | -7.977% |
| 15 | `Cc1cnccc1N1CCN(C(=O)C2CC3(CCNCC3)CN2)CC1` (stereo not given) | 5.623% | -23.5% | -57.46% | 5.464% | -0.149% | -5.926% |
| 16 | `Cc1cc(-c2cnc(NC3CC3)nc2-c2ccoc2)on1` | -2.203% | -21.51% | -1.961% | -4.255% | - | -0.8483% |
| 17 | `COc1ccc(CC(=O)N2CCCC(c3cc(C)[nH]n3)C2)cc1` (stereo not given) | -0.9221% | -5.675% | 1.37% | 2.041% | -3.58% | -22.88% |
| 18 | `COc1ccc(COCC(O)CN2CCC(c3ccn[nH]3)CC2)cc1` (stereo not given) | 1.513% | 3.461% | 3.412% | 3.429% | -7.908% | -15.4% |
| 19 | `CNC(=O)c1cccc(CNC2CCCSc3ccccc32)c1` (stereo not given) | 0.8959% | -25.72% | 1.463% | 0.9804% | -2.2% | -3.878% |
| 20 | `COCC(=O)N1CCN(c2cc(C)nc(C3CCCN3C(C)=O)c2)CC1` (stereo not given) | 3.062% | -3.471% | -2.67% | 9.89% | - | 11.35% |
| 21 | `CCc1n[nH]c(C2CN(C(=O)CCn3ccccc3=O)CCO2)n1` (stereo not given) | 2.039% | -5.234% | 2.36% | 2.579% | -5.348% | -2.256% |
| 22 | `CC(Cn1cccn1)NC(=O)NCc1cccnc1OC1CCCC1` (stereo not given) | 0.7537% | -15.81% | 2.216% | -6.415% | -2.111% | 6.033% |
| 23 | `Cn1nnc2c1C(COCC1CC1)CN(C(=O)Cc1cccs1)C2` (stereo not given) | 3.935% | 6.032% | 6.516% | -1.22% | -3.734% | 5.778% |
| 24 | `Cc1cc(-c2cccc(-c3ccn(CCCO)n3)c2)nc(N(C)C)n1` | 0.1121% | 19.45% | 0.4854% | 11.88% | 0.8639% | -46.11% |
| 25 | `Cc1nc(N)nc(C)c1CC(=O)N1CCCN(CC2CC2)C(C(C)C)C1` (stereo not given) | 9.07% | -16.48% | 0.5964% | 4.762% | 5.987% | 1.345% |
| 26 | `COCC(=O)N1CCCn2c(CN3CCCC3=O)nnc2C1` | 3.316% | -4.102% | 5.331% | 15.08% | 3.71% | 7.358% |
| 27 | `Cc1cc(CN(C)C(C(=O)O)c2ccc(C(C)(C)C)cc2)on1` (stereo not given) | 5.439% | -5.964% | 3.396% | 2.679% | 5.442% | -6.835% |
| 28 | `Cc1cnn(C2CCCN(C(=O)Cn3ccc(=O)n(C)c3=O)C2)c1` (stereo not given) | 7.36% | -15.18% | 2.016% | 2.521% | 0.3632% | 5.551% |
| 29 | `CCC(C)(CC(=O)O)NC(=O)Cc1ccccc1F` (stereo not given) | 0.681% | -4.551% | 8.908% | 0.4878% | 2.918% | -18.9% |
| 30 | `CC(C)c1nc(CN(C)C(=O)[C@H](N)Cc2ccc(Cl)cc2)cs1` | 6.424% | -4.528% | -33.6% | 1.587% | 3.307% | -9.491% |
| 31 | `Cc1cccc(-c2nccnc2C2CCN(C)CC2)c1C` | -1.438% | 7.776% | 7.656% | 1.916% | -0.5208% | -7.056% |
| 32 | `c1cncc(C2COC3(CCN(CC4CCOCC4)CC3)C2)c1` (stereo not given) | 5.163% | -26.63% | -3.951% | 3.738% | -6.987% | 1.605% |
| 33 | `CSC(C)C(=O)NS(=O)(=O)CCc1ccccc1` (stereo not given) | -0.2148% | 10.56% | 9.569% | -2.941% | 14.27% | -12.23% |
| 34 | `COc1ccc2c(c1)OCC(Cc1ccc(N(C)C)nc1)C2` (stereo not given) | 0.971% | -41.02% | -3.353% | 8.466% | 0.09234% | -1.982% |
| 35 | `CN1CCOC(c2cncc(CCC(=O)N(C)C)n2)C1` (stereo not given) | 5.012% | 7.792% | 4.751% | 8.462% | -4.008% | -4.479% |
| 36 | `CCNc1cc2c(nn1)CCN(C(=O)c1cccc3c1OCO3)C2` | 1.093% | -16.13% | -0.4779% | 5.714% | 2.175% | -12.8% |
| 37 | `Cc1ccsc1CN(CCN(C)C)Cc1ccccn1` | 1.372% | -26.61% | -12.24% | 1.626% | 3.602% | -14.33% |
| 38 | `Cc1ccc(CCNC(=O)NC2CCN(CC(F)(F)F)C2=O)cn1` (stereo not given) | 5.686% | -41.25% | 2.609% | 9.091% | -5.299% | 3.802% |

The last 3 entries again:

Compound,PfKRS1,Pks13 thioesterase,CoaBC,TcHisRS,MtTrpRS,ClpP1P2
CCNc1cc2c(nn1)CCN(C(=O)c1cccc3c1OCO3)C2,1.093%,-16.13%,-0.4779%,5.714%,2.175%,-12.8%
Cc1ccsc1CN(CCN(C)C)Cc1ccccn1,1.372%,-26.61%,-12.24%,1.626%,3.602%,-14.33%
Cc1ccc(CCNC(=O)NC2CCN(CC(F)(F)F)C2=O)cn1 (stereo not given),5.686%,-41.25%,2.609%,9.091%,-5.299%,3.802%

Measurements from “University of Dundee, Small-Polar-MMV Screening Library” (2021), ChEMBL document CHEMBL3988442.